{
  "sequences": {"note": "Amino acid sequences for entries named in this document (tags omitted). A change or cut given only in a name is not applied to a line headed by its entry.", "UniProt P18054": "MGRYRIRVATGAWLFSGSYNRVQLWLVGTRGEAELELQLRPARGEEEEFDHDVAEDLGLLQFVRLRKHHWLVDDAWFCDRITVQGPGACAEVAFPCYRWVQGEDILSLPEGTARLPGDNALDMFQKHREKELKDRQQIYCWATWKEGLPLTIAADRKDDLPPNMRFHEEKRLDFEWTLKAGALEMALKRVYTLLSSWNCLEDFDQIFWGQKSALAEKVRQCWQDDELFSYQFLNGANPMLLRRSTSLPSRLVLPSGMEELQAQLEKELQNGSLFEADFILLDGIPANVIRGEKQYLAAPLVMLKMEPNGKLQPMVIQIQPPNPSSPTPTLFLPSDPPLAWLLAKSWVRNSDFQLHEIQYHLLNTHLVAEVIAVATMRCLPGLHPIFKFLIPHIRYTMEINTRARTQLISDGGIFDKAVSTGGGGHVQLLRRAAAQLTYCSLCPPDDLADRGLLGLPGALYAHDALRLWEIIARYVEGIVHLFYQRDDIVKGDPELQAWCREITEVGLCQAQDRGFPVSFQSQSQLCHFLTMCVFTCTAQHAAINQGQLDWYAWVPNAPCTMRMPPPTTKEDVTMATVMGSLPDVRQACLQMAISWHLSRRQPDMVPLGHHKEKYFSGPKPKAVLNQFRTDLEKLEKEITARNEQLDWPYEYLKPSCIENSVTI"},
  "source": "PubChem BioAssay AID1671190",
  "about": "(National Center for Advancing Translational Sciences (NCATS), 2021)",
  "note": "Values joined by “and” are separate entries in the source; they are usually repeats but may differ in a detail not shown here. Identical values can stand only once. Out of some 580,000 compounds screened, about 6,100 (1.1%) were called active. This list was built around the results that the source calls inconclusive (neither active nor inactive); the mix of calls is not that of the screen. Calls follow the shape of the dose curve; as a rule, active = well fitted inhibition curve with a large enough effect; inconclusive = small, poorly fitted or top-dose-only effect, or another doubt; inactive = no such curve, though single readings can be large or run the other way. Where the call is inconclusive, the potency comes from a doubtful curve fit. Potency is read from the fitted curve at half-maximal effect.",
  "data": [
    {"molecular_target": "Polyunsaturated fatty acid lipoxygenase ALOX12 (Homo sapiens) (UniProt P18054)", "assay": "Primary qHTS assay for inhibitors of human arachidonate 12S-lipoxygenase (ALOX12): Round 2", "conditions": "purified 12hLO, xylenol orange hydroperoxide absorbance; series mostly up to 108 µM", "how_it_was_run": "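Hydroperoxide product was detected by ferrous iron/xylenol orange as the 573 to 405 nm absorbance ratio. Arachidonic acid at 40 uM (final) was turned over for 30 min at room temperature by 150 nM human 12hLO, pH 7.0 Hepes buffer, after 15 min compound preincubation.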", "values": [
      {"smiles": "COc1ccc(-c2cc(C3CCN(Cc4ccc([N+](=O)[O-])cc4)CC3)[nH]n2)cc1", "Potency": "inconclusive: 50.1 µM [inhibitor, partial curve, poor fit]"},
      {"smiles": "CCCCCCCNC(=O)C1(CC2CC(c3ccc(Cl)cc3)=NO2)CCN(C(=O)OC(C)(C)C)CC1", "note": "(stereo not given)", "Potency": "inactive"},
      {"smiles": "O=C(O)CN1C(=O)/C(=C\\c2ccccc2OCc2ccc(Cl)cc2)SC1=S", "Potency": "inconclusive: 7.08 µM [inhibitor, partial curve, poor fit]"},
      {"smiles": "CN(C)c1cccc(C(=O)NC2CCN(c3cnn(C)c(=O)c3)CC2)c1", "Potency": "inactive"},
      {"smiles": "COc1ccc(CNC(=O)c2ccc3c(c2)N(Cc2cccc(Cl)c2)C(=O)c2ccccc2S3)c(OC)c1", "Potency": "inactive"},
      {"smiles": "CN(C(=O)c1ccc2c(=O)n3c(nc2c1)CCCCC3)c1cccc(Cl)c1", "Potency": "inactive"},
      {"smiles": "CCOc1ccc(N2CC(c3nc(-c4ccccn4)no3)CC2=O)cc1", "note": "(stereo not given)", "Potency": "inactive"},
      {"smiles": "O=S(=O)(Cc1ccc(Cl)cc1)c1nc2ccccc2nc1NC1CCCC1", "Potency": "inconclusive: 56.2 µM [inhibitor, partial curve, poor fit]"},
      {"smiles": "CC(C)c1ccc(NC(=O)CSC2=Nc3ccccc3C3=NC(CC(=O)NCc4ccc(F)cc4)C(=O)N23)cc1", "note": "(stereo not given)", "Potency": "inconclusive: 89.1 µM [inhibitor, partial curve, poor fit]"},
      {"smiles": "CCOc1c(O)ccc(C2NC(=O)N(C)C(C)=C2C(=O)OC)c1[N+](=O)[O-]", "note": "(stereo not given)", "Potency": "inconclusive: 44.7 µM [inhibitor, partial curve, poor fit]"},
      {"smiles": "O=C(CCC(=O)c1ccc(F)cc1)OCC(=O)c1ccc([N+](=O)[O-])cc1", "Potency": "inconclusive: 8.91 µM [inhibitor, full curve, poor fit]"},
      {"smiles": "Cc1oc(-c2ccccc2)nc1CNC(=O)Nc1ccccc1Cl", "Potency": "inconclusive: 50.1 µM [inhibitor, partial curve, poor fit]"},
      {"smiles": "Cn1nc(C(=O)Nc2nc(-c3ccc[nH]3)cs2)c2ccccc2c1=O", "Potency": "inconclusive: 2.82 µM [inhibitor, full curve, poor fit]"},
      {"smiles": "CC(C)NC(=O)c1ccc2c(Cl)c3c(nc2c1)CCCC3", "Potency": "inconclusive: 31.6 µM [inhibitor, partial curve, poor fit]"},
      {"smiles": "COc1ccc(-n2c(SC(C)C(=O)Nc3ncc(Cl)cc3Cl)nc3ccccc32)cc1", "note": "(stereo not given)", "Potency": "inactive"},
      {"smiles": "Cc1nc(SCC(=O)Nc2ccc3ccccc3c2)oc1C", "Potency": "inconclusive: 35.5 µM [inhibitor, partial curve, poor fit]"},
      {"smiles": "O=C(Nc1nnc(-c2ccccn2)o1)c1ccc(Br)cc1", "Potency": "inactive"},
      {"smiles": "O=C(NCc1n[nH]c(=S)n1-c1ccc(Cl)c(Cl)c1)c1ccco1", "Potency": "inconclusive: 31.6 µM [inhibitor, single point]"},
      {"smiles": "COc1ccc(-c2coc3c(C)c4oc(=O)c(CC(=O)O)c(C)c4cc23)cc1", "Potency": "inactive"},
      {"smiles": "N#CCSc1ccccc1NC(=O)CN1C(=O)NC(CCc2ccccc2)C1=O", "note": "(stereo not given)", "Potency": "inconclusive: 39.8 µM [inhibitor, partial curve, poor fit]"},
      {"smiles": "O=C(c1ccc(Cl)cc1)N1CCC2(CC1)CN(c1ccccc1)C(=O)c1ccccc1O2", "Potency": "inconclusive: 89.1 µM [inhibitor, partial curve, poor fit]"},
      {"smiles": "Cc1cccn2c(Nc3ccccc3)c(-c3ccc(N4CCOCC4)cc3)nc12", "Potency": "inconclusive: 100 µM [inhibitor, partial curve, poor fit]"},
      {"smiles": "Cc1oc2c(c1C(=O)N1CCCC1)CN(Cc1ccc(F)cc1)CC2", "Potency": "inconclusive: 35.5 µM [inhibitor, full curve]"},
      {"smiles": "NS(=O)(=O)c1ccc(NC(=O)c2ccc(OCC3CCCO3)cc2)cc1", "note": "(stereo not given)", "Potency": "inconclusive: 44.7 µM [inhibitor, partial curve, poor fit]"},
      {"smiles": "Cc1cccc(COC[C@H](Cc2ccccc2)N2CCN(C(=O)c3cccc(C)c3)CCC2=O)c1", "Potency": "inconclusive: 15.8 µM [inhibitor, partial curve, poor fit]"},
      {"smiles": "COc1cc(OC)cc(C(=O)NCc2n[nH]c(=S)n2-c2ccccc2OC)c1", "Potency": "inconclusive: 28.2 µM [inhibitor, partial curve]"},
      {"smiles": "CC(C)(C)C(=O)O/N=C(\\N)c1ccc([N+](=O)[O-])s1", "Potency": "inconclusive: 7.08 µM [inhibitor, partial curve, poor fit]"},
      {"smiles": "CCN(CC)S(=O)(=O)c1ccc(NCc2ccccn2)nc1", "Potency": "inconclusive: 35.5 µM [inhibitor, partial curve, poor fit]"},
      {"smiles": "O=C(CC1CCN(C(=O)Cc2cccc(F)c2)C1)NC1CC1", "note": "(stereo not given)", "Potency": "inactive"},
      {"smiles": "CCN(CC)c1ccc(Nc2cc3n(c(=O)n2)CCc2cc(OC)c(OC)cc2-3)cc1", "Potency": "inconclusive: 56.2 µM [inhibitor, partial curve, poor fit]"},
      {"smiles": "COc1ccc(CCn2c(N)cc(=O)[nH]c2=S)cc1OC", "Potency": "inconclusive: 50.1 µM [inhibitor, partial curve, poor fit]"},
      {"smiles": "Cc1ccc(CNC(=O)CCc2ncc(-c3ccc(F)cc3)o2)cc1", "Potency": "inactive"},
      {"smiles": "CCOC(=O)N1CCN(C(=O)c2ccc3c(=O)n(Cc4ccccc4)c(=S)[nH]c3c2)CC1", "Potency": "inconclusive: 15.8 µM [inhibitor, single point]"},
      {"smiles": "CNC(=O)CCS(=O)(=O)Cc1coc(-c2cccc(F)c2)n1", "Potency": "inactive"},
      {"smiles": "c1ccc(Oc2ccc3ccccc3n2)cc1", "Potency": "inconclusive: 50.1 µM [inhibitor, partial curve, poor fit]"},
      {"smiles": "COc1ccc(NC(=O)CN2C(=O)NC3(CCC(C(C)(C)C)CC3)C2=O)cc1", "note": "(stereo not given)", "Potency": "inconclusive: 50.1 µM [inhibitor, partial curve]"},
      {"smiles": "COc1cccc(OC)c1C(=O)OCC(=O)c1ccc(Cl)cc1Cl", "Potency": "inconclusive: 50.1 µM [inhibitor, single point]"},
      {"smiles": "O=C(NCc1ccccc1)O[C@H]1CC[C@@]23CCCN2C(=O)CCC[C@H]3[C@H]1Cc1ccccc1", "Potency": "inactive"},
      {"smiles": "COc1ccc(OC)c(NC(=O)Cn2cccc2-c2nc(-c3ccc(F)cc3)no2)c1", "Potency": "inconclusive: 89.1 µM [inhibitor, single point]"},
      {"smiles": "Oc1ccc(Cl)c2cccnc12", "Potency": "active: 4.55 µM and inconclusive: 31.6 µM [inhibitor, partial curve, poor fit]"}
    ]}
  ]
}
